{"source": "PubChem BioAssay AID743121 (NCATS, 2013)", "test": "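Genes whose silencing strengthens cell killing by camptothecin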 (primary screen)", "system": "MDA-MB-231 cells, a human breast cancer line", "knock-down reagent": "single siRNA against human genes, 20 nM siRNA (0.8 pmol per well)", "timing": "120 h (drug added 48 h after transfection, read 72 h later)", "conditions": "camptothecin 20 nM (about EC30) for 72 h; vehicle 0.1% DMSO in parallel plates", "detection": "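CellTiter-Glo ATP signal, scaled to control siRNA as percent viability; sensitisation given as log2 of untreated divided by camptothecin-treated viability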", "scale": "log2 vehicle/camptothecin viability: higher = stronger sensitisation to camptothecin; viability with camptothecin: higher = more viable cells", "units": "viability with camptothecin in % of control", "call rule": "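Each gene scored by redundant siRNA activity (RSA) over its individual siRNA ratios; a gene is called active at p < 0.001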", "note": "The whole screen tested about 26,000 reagents; below is an unselected part. 167 of all reagents (0.63%) were called active. 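Calls are per gene from RSA p-values that are not deposited; an individual active-marked siRNA can sensitise only weakly.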 Further read-outs or replicates are left out here."}
{"gene knocked down": "XPR1 (GeneID 9213)", "PubChem SID": "SID164402441", "log2 vehicle/camptothecin viability": -0.141, "viability with camptothecin": 82.8, "activity call": "inactive"}
{"gene knocked down": "XPR1 (GeneID 9213)", "PubChem SID": "SID164402442", "log2 vehicle/camptothecin viability": 0.0709, "viability with camptothecin": 63.2, "activity call": "inactive"}
{"gene knocked down": "XPR1 (GeneID 9213)", "PubChem SID": "SID164402447", "log2 vehicle/camptothecin viability": 0.156, "viability with camptothecin": 60, "activity call": "inactive"}
{"gene knocked down": "XPR1 (GeneID 9213)", "PubChem SID": "SID164402448", "log2 vehicle/camptothecin viability": -0.562, "viability with camptothecin": 87, "activity call": "inactive"}
{"gene knocked down": "SCARB1 (GeneID 949)", "PubChem SID": "SID164357248", "log2 vehicle/camptothecin viability": -0.198, "viability with camptothecin": 131, "activity call": "inactive"}
{"gene knocked down": "SCARB1 (GeneID 949)", "PubChem SID": "SID164357250", "log2 vehicle/camptothecin viability": -0.31, "viability with camptothecin": 101, "activity call": "inactive"}
{"gene knocked down": "SCARB1 (GeneID 949)", "PubChem SID": "SID164357251", "log2 vehicle/camptothecin viability": -0.138, "viability with camptothecin": 68.1, "activity call": "inactive"}
{"gene knocked down": "SCARB1 (GeneID 949)", "PubChem SID": "SID164357252", "log2 vehicle/camptothecin viability": -0.314, "viability with camptothecin": 133, "activity call": "inactive"}
{"gene knocked down": "SCARB1 (GeneID 949)", "PubChem SID": "SID164357253", "log2 vehicle/camptothecin viability": -1.11, "viability with camptothecin": 56.1, "activity call": "inactive"}
{"gene knocked down": "SCARB1 (GeneID 949)", "PubChem SID": "SID164357257", "log2 vehicle/camptothecin viability": 0.158, "viability with camptothecin": 69.1, "activity call": "inactive"}
{"gene knocked down": "SCARB1 (GeneID 949)", "PubChem SID": "SID164357258", "log2 vehicle/camptothecin viability": -0.65, "viability with camptothecin": 23.9, "activity call": "inactive"}
{"gene knocked down": "SCARB1 (GeneID 949)", "PubChem SID": "SID164357259", "log2 vehicle/camptothecin viability": -0.452, "viability with camptothecin": 77.3, "activity call": "inactive"}
{"gene knocked down": "LYPD6B (GeneID 130576)", "PubChem SID": "SID164569408", "log2 vehicle/camptothecin viability": -0.389, "viability with camptothecin": 67.6, "activity call": "inactive"}
{"gene knocked down": "LYPD6B (GeneID 130576)", "PubChem SID": "SID164569409", "log2 vehicle/camptothecin viability": -0.357, "viability with camptothecin": 71.8, "activity call": "inactive"}
{"gene knocked down": "LYPD6B (GeneID 130576)", "PubChem SID": "SID164569411", "log2 vehicle/camptothecin viability": -0.599, "viability with camptothecin": 67.1, "activity call": "inactive"}
{"gene knocked down": "LYPD6B (GeneID 130576)", "PubChem SID": "SID164569412", "log2 vehicle/camptothecin viability": -0.19, "viability with camptothecin": 76.1, "activity call": "inactive"}
